Reference: paper PMC9578143, “Small-Molecule Ebselen Binds to YTHDF Proteins Interfering with the Recognition of N^6-Methyladenosine-Modified RNAs” (ACS Pharmacology & Translational Science, 2022)

Assays:
[1] = molecular target: T1, YTHDF1 YTH domain (human) (UniProt Q9BYJ9); test: EMSA; conditions: m6A at position 5, REMSA: 20 mM Hepes pH 7.5, 50 mM KCl, BSA, 0.25% glycerol, gel at 4 C, AlphaScreen: 25 mM Hepes pH 7.5, 100 mM NaCl, 0.1% BSA, RT, recombinant protein, residues 365-554, protein details: 6xHis (C-terminal as stated), label: 5'-IRDye-700
T1 sequence (looked up): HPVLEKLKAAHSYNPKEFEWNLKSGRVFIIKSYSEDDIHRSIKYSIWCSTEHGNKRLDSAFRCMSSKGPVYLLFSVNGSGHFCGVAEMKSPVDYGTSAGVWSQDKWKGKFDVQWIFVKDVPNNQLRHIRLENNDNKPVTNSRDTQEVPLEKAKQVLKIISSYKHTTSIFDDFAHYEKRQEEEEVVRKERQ

[2] = molecular target: T1, YTHDF1 YTH domain (human); test: AlphaScreen; conditions: m6A at position 5, REMSA: 20 mM Hepes pH 7.5, 50 mM KCl, BSA, 0.25% glycerol, gel at 4 C, AlphaScreen: 25 mM Hepes pH 7.5, 100 mM NaCl, 0.1% BSA, RT, recombinant protein, residues 365-554, protein details: 6xHis (C-terminal as stated), label: 5'-biotin

Sequence	binding result ([1]; 500 nM protein, 2 nM RNA, no ebselen)	binding result ([1]; ebselen 0.1-10 uM, inhibition from 0.1 uM or 1 uM)	binding result ([2]; 50 nM protein, 50 nM RNA, no inhibitor)	binding result ([2]; ebselen 0-100 uM (inhibitor IC50 3.565 uM))	binding result ([2]; ebsulfur (inhibitor IC50 23.14 uM))
CCGAACUGUC [GAm6ACU REMSA probe]	binds	binds more weakly	–	–	–
CCGAACUGUC [GAm6ACU AlphaScreen probe]	–	–	binds	binds more weakly	binds more weakly

The exact form of at least one protein or probe is not confirmed. Weaker means in comparison with the reference protein, sequence or condition of that experiment. Protein sequences can lack the tags named with them. At least one verdict rests on a figure or table, not on a statement of the authors.
